{
  "source": "patent US7067491B2",
  "about": "“Heterocyclic compounds having elastase-inhibiting activity and intermediates thereof” (Dainippon Pharmaceutical Co., Ltd., priority 2002, dated 2006)",
  "tested_on": "pulmonary hemorrhage induced by human neutrophil elastase (HNE)",
  "assay": "Duration of inhibitory activity on pulmonary hemorrhage induced by human neutrophil elastase (HNE)",
  "type": "in vivo",
  "conditions": "hamster, 10 mg/kg orally administered 150 minutes prior to HNE",
  "note": "For at least one compound, name, drawing or mass did not settle the structure.",
  "data": [
    {"smiles": "Cc1c(C(=O)N[C@H](C(=O)N2CCC[C@H]2C(=O)N[C@H](C(=O)C(F)(F)F)C(C)C)C(C)C)cnn1-c1ccccc1", "note": "[Example 10, N-[(1S)-2-((2S)-2-{N-[(1S)-3,3,3-trifluoro-1-(methylethyl)-2-oxopropyl]carbamoyl}pyrrolidinyl)-1-(methylethyl)-2-oxoethyl]-(5-methyl-1-phenylpyrazol-4-yl)carboxamide]", "values": [
      {"measurement": "Inhibition of pulmonary hemorrhage (duration)", "result": "potently inhibited the pulmonary hemorrhage"}
    ]}
  ]
}
